Reference: article PMC9482615
No constants are given. Whether binding was seen depends on the method and setting. In cells and extracts the contact can be indirect. Some entries that bind do so weakly or less than the wild type. Each block holds one substance with its values, some of them ahead of it.

Sequences of proteins named here, by UniProt entry; tags and fusion partners are left off. A change or cut given only in a name is not applied to a line headed by its entry. A line that says so, or that is headed by a name, gives the form on record, which may keep a tag or linker. Residues count along the entry.
UniProt O43791: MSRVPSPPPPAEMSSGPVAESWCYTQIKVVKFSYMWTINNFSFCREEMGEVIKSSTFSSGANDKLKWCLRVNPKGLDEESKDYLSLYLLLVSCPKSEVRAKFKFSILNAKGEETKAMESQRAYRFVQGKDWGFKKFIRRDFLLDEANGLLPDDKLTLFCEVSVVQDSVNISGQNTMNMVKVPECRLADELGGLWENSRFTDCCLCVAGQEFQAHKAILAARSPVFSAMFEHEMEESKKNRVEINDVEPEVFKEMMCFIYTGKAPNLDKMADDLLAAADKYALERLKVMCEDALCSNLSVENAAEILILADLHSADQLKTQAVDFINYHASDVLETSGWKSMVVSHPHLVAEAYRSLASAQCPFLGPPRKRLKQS
GST-tagged N-terminal deletion mutant of SPOP (GST-SPOPC): residues 173-297 of O43791
UniProt Q15672: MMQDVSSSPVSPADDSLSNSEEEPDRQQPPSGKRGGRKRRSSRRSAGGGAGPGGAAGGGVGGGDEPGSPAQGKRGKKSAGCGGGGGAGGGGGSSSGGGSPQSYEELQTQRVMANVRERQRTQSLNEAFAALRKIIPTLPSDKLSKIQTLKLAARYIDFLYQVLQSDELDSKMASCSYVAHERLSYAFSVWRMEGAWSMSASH

Key:
[1] = target: GST-tagged N-terminal deletion mutant of SPOP (GST-SPOPC) (UniProt O43791); test: pull-down; GST-SPOPN or GST-SPOPC on glutathione-sepharose 4B beads; proteins on the beads detected by western blotting; source of TWIST1 not stated
TWIST1, endogenous = TWIST1, endogenous (UniProt Q15672); test: co-IP; endogenous proteins; IP with a TWIST1 antibody or an SPOP antibody, then western blotting; cell line not stated
[2] = target: speckle-type POZ protein (SPOP), endogenous (UniProt O43791); test: as above

binding [1]: no binding
Substance: TWIST1 used in the GST pull-down (from UniProt Q15672 1-202)

binding (TWIST1, endogenous): binds
Substance: speckle-type POZ protein (SPOP), endogenous (from UniProt O43791 1-374)

binding [2]: binds
Substance: TWIST1, endogenous (from UniProt Q15672 1-202)
